The target of test [1] is T1, FLAG-tagged SMG5 WT (human) (UniProt Q9UPR3).
T1 sequence: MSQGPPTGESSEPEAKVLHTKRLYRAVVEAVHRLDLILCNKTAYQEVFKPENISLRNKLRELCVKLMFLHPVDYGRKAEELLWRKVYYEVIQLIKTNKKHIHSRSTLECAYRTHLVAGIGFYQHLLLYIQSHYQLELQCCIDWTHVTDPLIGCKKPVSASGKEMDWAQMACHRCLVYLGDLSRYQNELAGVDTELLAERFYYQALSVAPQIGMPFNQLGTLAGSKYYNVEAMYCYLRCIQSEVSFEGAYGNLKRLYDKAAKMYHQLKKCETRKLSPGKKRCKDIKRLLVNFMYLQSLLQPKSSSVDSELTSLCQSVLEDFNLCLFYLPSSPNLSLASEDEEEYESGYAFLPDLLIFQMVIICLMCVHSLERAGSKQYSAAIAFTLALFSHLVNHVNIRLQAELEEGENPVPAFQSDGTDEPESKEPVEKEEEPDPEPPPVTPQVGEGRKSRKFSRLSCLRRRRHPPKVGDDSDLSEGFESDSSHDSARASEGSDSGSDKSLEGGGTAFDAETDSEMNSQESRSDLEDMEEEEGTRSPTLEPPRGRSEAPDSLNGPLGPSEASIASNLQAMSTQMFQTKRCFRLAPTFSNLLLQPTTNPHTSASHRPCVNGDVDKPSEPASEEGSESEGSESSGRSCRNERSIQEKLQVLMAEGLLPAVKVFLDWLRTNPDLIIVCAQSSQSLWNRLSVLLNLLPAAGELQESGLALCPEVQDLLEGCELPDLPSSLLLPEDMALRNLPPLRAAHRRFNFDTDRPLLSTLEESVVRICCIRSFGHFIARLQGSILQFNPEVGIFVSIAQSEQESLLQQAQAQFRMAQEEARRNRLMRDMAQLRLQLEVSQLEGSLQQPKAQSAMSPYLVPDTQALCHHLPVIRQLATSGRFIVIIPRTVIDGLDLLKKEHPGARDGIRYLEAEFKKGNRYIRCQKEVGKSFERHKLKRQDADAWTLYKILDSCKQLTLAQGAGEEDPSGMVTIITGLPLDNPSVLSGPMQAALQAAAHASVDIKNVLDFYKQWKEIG
Description: affinity purification with mass spectrometry; FLAG-tagged SMG5 WT or 1-853 or FLAG control in WT 293 cells, induced 72 h with doxycycline; FLAG IP, mild wash buffer, elution with FLAG peptide; label-free mass spectrometry.

The target of test [2] is T2, FLAG-tagged SMG5 1-853 (human) (UniProt Q9UPR3).
T2 sequence: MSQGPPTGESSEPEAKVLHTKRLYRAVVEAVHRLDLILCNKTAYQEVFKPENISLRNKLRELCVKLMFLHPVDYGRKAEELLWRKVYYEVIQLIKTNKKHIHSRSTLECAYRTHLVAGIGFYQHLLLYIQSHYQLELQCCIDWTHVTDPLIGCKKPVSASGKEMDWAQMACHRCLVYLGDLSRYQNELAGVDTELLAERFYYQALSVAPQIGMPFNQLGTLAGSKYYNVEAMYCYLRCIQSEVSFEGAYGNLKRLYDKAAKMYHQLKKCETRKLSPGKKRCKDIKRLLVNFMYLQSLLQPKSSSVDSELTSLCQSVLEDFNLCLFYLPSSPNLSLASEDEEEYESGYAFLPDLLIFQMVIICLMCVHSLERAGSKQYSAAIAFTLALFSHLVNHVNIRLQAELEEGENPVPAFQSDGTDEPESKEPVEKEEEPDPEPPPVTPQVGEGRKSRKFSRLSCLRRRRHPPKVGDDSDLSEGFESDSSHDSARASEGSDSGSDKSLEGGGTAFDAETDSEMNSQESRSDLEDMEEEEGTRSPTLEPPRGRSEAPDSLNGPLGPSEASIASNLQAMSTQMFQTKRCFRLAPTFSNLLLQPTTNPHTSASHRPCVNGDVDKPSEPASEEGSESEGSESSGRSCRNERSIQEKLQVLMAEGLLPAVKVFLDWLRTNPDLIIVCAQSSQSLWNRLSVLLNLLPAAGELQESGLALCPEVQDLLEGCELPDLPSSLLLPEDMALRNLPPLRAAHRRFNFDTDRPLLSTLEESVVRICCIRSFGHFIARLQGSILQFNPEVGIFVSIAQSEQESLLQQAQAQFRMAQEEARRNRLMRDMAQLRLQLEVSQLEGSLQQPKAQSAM
Described as above.

Test [3] addresses T3, FLAG-TurboID-UPF1 (UniProt Q92900).
T3 sequence: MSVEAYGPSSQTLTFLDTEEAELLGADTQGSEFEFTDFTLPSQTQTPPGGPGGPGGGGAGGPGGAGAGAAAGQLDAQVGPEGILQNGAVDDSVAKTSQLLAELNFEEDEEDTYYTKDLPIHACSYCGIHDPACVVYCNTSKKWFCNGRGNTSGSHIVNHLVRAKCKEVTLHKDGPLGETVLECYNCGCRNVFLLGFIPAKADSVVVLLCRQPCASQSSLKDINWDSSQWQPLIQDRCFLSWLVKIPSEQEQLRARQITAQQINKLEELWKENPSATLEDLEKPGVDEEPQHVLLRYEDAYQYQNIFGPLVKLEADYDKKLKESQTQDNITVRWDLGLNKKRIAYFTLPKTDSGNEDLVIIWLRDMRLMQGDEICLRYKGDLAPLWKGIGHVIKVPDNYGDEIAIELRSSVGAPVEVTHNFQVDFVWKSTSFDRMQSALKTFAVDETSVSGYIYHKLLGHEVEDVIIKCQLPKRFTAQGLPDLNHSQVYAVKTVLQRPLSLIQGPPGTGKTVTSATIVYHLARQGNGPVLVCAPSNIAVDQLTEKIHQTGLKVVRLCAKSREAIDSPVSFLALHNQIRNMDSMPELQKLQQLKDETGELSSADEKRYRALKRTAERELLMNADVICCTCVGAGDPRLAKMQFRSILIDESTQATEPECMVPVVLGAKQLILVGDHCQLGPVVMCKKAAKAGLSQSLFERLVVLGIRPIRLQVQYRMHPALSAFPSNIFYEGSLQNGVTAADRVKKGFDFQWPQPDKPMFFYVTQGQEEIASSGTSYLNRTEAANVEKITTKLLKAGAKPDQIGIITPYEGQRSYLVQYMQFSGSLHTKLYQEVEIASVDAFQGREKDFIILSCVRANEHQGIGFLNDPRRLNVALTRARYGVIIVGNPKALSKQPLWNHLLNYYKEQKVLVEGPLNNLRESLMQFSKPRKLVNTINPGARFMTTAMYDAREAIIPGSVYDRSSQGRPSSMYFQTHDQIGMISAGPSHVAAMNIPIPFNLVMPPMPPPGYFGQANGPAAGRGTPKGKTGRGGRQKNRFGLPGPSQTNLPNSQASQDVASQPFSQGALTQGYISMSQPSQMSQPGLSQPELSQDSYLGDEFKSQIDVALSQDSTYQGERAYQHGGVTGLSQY
The experiment in a line: proximity labelling; FLAG-TurboID-UPF1 against FLAG-TurboID control in WT cells; 50 µM biotin for 15 min; streptavidin beads; label-free mass spectrometry.

The target of test [4] is T3, FLAG-TurboID-UPF1. The experiment in a line: proximity labelling; FLAG-TurboID-UPF1 or FLAG-TurboID control in WT and SMG7 KO cells with control or SMG5 KD; 50 µM biotin for 15 min; streptavidin beads; western blot (Fig. 6b). (In general: A western blot detects proteins with antibodies after separation by electrophoresis.)
Test [5] has as its target T4, FLAG-tagged SMG5 WT (human), Q9UPR3.
T4 chain: T1 sequence
The experiment in a line: affinity purification with mass spectrometry; FLAG-tagged SMG5 WT or 1-853 or FLAG control in WT 293 cells, induced 72 h with doxycycline; FLAG IP, mild wash buffer, elution with FLAG peptide; label-free mass spectrometry. The following applies: remark: other sources report otherwise.

Results are given in words; binding and its absence hold for the method and conditions named. Binding seen in cells or lysates may run through a third protein. A yes stands for co-enrichment or nearness to the bait. Other partners may have been found. For some assays here: No binding means not detected with the bait. Sequences can lack the tags named with a protein.

B1: SMG7 (endogenous) (protein, UniProt Q92540 1-1137)
chain: MSLQSAQYLRQAEVLKADMTDSKLGPAEVWTSRQALQDLYQKMLVTDLEYALDKKVEQDLWNHAFKNQITTLQGQAKNRANPNRSEVQANLSLFLEAASGFYTQLLQELCTVFNVDLPCRVKSSQLGIISNKQTHTSAIVKPQSSSCSYICQHCLVHLGDIARYRNQTSQAESYYRHAAQLVPSNGQPYNQLAILASSKGDHLTTIFYYCRSIAVKFPFPAASTNLQKALSKALESRDEVKTKWGVSDFIKAFIKFHGHVYLSKSLEKLSPLREKLEEQFKRLLFQKAFNSQQLVHVTVINLFQLHHLRDFSNETEQHTYSQDEQLCWTQLLALFMSFLGILCKCPLQNESQEESYNAYPLPAVKVSMDWLRLRPRVFQEAVVDERQYIWPWLISLLNSFHPHEEDLSSISATPLPEEFELQGFLALRPSFRNLDFSKGHQGITGDKEGQQRRIRQQRLISIGKWIADNQPRLIQCENEVGKLLFITEIPELILEDPSEAKENLILQETSVIESLAADGSPGLKSVLSTSRNLSNNCDTGEKPVVTFKENIKTREVNRDQGRSFPPKEVRRDYSKGITVTKNDGKKDNNKRKTETKKCTLEKLQETGKQNVAVQVKSQTELRKTPVSEARKTPVTQTPTQASNSQFIPIHHPGAFPPLPSRPGFPPPTYVIPPPVAFSMGSGYTFPAGVSVPGTFLQPTAHSPAGNQVQAGKQSHIPYSQQRPSGPGPMNQGPQQSQPPSQQPLTSLPAQPTAQSTSQLQVQALTQQQQSPTKAVPALGKSPPHHSGFQQYQQADASKQLWNPPQVQGPLGKIMPVKQPYYLQTQDPIKLFEPSLQPPVMQQQPLEKKMKPFPMEPYNHNPSEVKVPEFYWDSSYSMADNRSVMAQQANIDRRGKRSPGVFRPEQDPVPRMPFEKSLLEKPSELMSHSSSFLSLTGFSLNQERYPNNSMFNEVYGKNLTSSSKAELSPSMAPQETSLYSLFEGTPWSPSLPASSDHSTPASQSPHSSNPSSLPSSPPTHNHNSVPFSNFGPIGTPDNRDRRTADRWKTDKPAMGGFGIDYLSATSSSESSWHQASTPSGTWTGHGPSMEDSSAVLMESLKSIWSSSMMHPGPSALEQLLMQQKQKQQRGQGTMNPPH
Turning to B1, the binding result in test [1] and in test [2] was “binds” throughout.

B2: UPF3B (endogenous) (protein, UniProt Q9BZI7 1-483)
chain: MKEEKEHRPKEKRVTLLTPAGATGSGGGTSGDSSKGEDKQDRNKEKKEALSKVVIRRLPPTLTKEQLQEHLQPMPEHDYFEFFSNDTSLYPHMYARAYINFKNQEDIILFRDRFDGYVFLDNKGQEYPAIVEFAPFQKAAKKKTKKRDTKVGTIDDDPEYRKFLESYATDNEKMTSTPETLLEEIEAKNRELIAKKTTPLLSFLKNKQRMREEKREERRRREIERKRQREEERRKWKEEEKRKRKDIEKLKKIDRIPERDKLKDEPKIKVHRFLLQAVNQKNLLKKPEKGDEKELDKREKAKKLDKENLSDERASGQSCTLPKRSDSELKDEKPKRPEDESGRDYREREREYERDQERILRERERLKRQEEERRRQKERYEKEKTFKRKEEEMKKEKDTLRDKGKKAESTESIGSSEKTEKKEEVVKRDRIRNKDRPAMQLYQPGARSRNRLCPPDDSTKSGDSAAERKQESGISHRKEGGEE
As for B2, the binding entry in test [3] and in test [4] was “binds” throughout.

B3: PNRC2 (endogenous), Q9NPJ4 1-139 (protein)
chain: MGGGERYNIPAPQSRNVSKNQQQLNRQKTKEQNSQMKIVHKKKERGHGYNSSAAAWQAMQNGGKNKNFPNNQSWNSSLSGPRLLFKSQANQNYAGAKFSEPPSPSVLPKPPSHWVPVSFNPSDKEIMTFQLKTLLKVQV
With B3, the binding result in test [5] is on record as “no binding”.

The record behind these values is publication PMC8233366.
